Data published in paper PMC10119315.
Results are given in words; binding and its absence hold for the method and conditions named. In cells and extracts the contact can be indirect. Some results given as binding are weak or reduced against the parent protein; the word gives no strength. Sequences can lack the tags named with a protein.

Amino acid sequences for entries named in this document (tags omitted). Residues count along the entry.
UniProt P01137, residues 30-390: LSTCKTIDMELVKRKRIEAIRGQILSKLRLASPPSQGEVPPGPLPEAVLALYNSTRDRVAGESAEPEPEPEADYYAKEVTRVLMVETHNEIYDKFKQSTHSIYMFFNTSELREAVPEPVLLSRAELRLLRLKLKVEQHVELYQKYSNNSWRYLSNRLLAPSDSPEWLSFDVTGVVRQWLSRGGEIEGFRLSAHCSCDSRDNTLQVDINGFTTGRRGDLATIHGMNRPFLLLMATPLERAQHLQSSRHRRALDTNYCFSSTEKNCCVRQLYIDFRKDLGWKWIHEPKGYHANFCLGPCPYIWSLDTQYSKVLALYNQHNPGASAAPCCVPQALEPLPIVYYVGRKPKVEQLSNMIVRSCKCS

Target: LAP-TGF-β1-GFP (human) (UniProt P01137)
Experiment: co-IP; HEK293T cells co-transfected, lysed 48 h later in Tris-HCl pH 8.0, 150 mM NaCl, 1% Triton X-100 buffer; antibody against FLAG or GFP or control IgG overnight at 4 °C, Protein A/G agarose; Western blot; also with co-expressed AGGF1-GFP or AGGF1-RDD^del-GFP, or purified AGGF1 or AGGF1-RDD^del for 24 h (wild-type AGGF1 enhanced the co-precipitation, the mutant did not)

B1: Integrin α7-FLAG (receptor, UniProt Q13683-7 34-1137)
chain: FNLDVMGALRKEGEPGSLFGFSVALHRQLQPRPQSWLLVGAPQALALPGQQANRTGGLFACPLSLEETDCYRVDIDQGADMQKESKENQWLGVSVRSQGPGGKIVTCAHRYEARQRVDQILETRDMIGRCFVLSQDLAIRDELDGGEWKFCEGRPQGHEQFGFCQQGTAAAFSPDSHYLLFGAPGTYNWKGLLFVTNIDSSDPDQLVYKTLDPADRLPGPAGDLALNSYLGFSIDSGKGLVRAEELSFVAGAPRANHKGAVVILRKDSASRLVPEVMLSGERLTSGFGYSLAVADLNSDGWPDLIVGAPYFFERQEELGGAVYVYLNQGGHWAGISPLRLCGSPDSMFGISLAVLGDLNQDGFPDIAVGAPFDGDGKVFIYHGSSLGVVAKPSQVLEGEAVGIKSFGYSLSGSLDMDGNQYPDLLVGSLADTAVLFRARPILHVSHEVSIAPRSIDLEQPNCAGGHSVCVDLRVCFSYIAVPSSYSPTVALDYVLDADTDRRLRGQVPRVTFLSRNLEEPKHQASGTVWLKHQHDRVCGDAMFQLQENVKDKLRAIVVTLSYSLQTPRLRRQAPGQGLPPVAPILNAHQPSTQRAEIHFLKQGCGEDKICQSNLQLVRARFCTRVSDTEFQPLPMDVDGTTALFALSGQPVIGLELMVTNLPSDPAQPQADGDDAHEAQLLVMLPDSLHYSGVRALDPAEKPLCLSNENASHVECELGNPMKRGAQVTFYLILSTSGISIETTELEVELLLATISEQELHPVSARARVFIELPLSIAGMAIPQQLFFSGVVRGERAMQSERDVGSKVKYEVTVSNQGQSLRTLGSAFLNIMWPHEIANGKWLLYPMQVELEGGQGPGQKGLCSPRPNILHLDVDSRDRRRRELEPPEQQEPGERQEPSMSWWPVSSAEKKKNITLDCARGTANCVVFSCPLYSFDRAAVLHVWGRLWNSTFLEEYSAVKSLEVIVRANITVKSSIKNLMLRDASTVIPVMVYLDPMAVVAEGVPWWVILLAVLAGLLVLALLVLLLWKMGFFKRAKHPEATVPQYHAVKIPREDRQQFKEEKTGTILRNNWGSPRREGPDAHPILAADGHPELGPDGHPGPGTA
- binding: binds
